Measurements: PMC4634852
Results are given in words; binding and its absence hold for the method and conditions named. In cells and extracts the contact can be indirect. Some binding calls cover weakened binding; strength is not graded here. Tags and fused reporters may be left off the sequences shown.

By UniProt entry, the sequences of proteins in these tests, tags left out.
UniProt Q24117: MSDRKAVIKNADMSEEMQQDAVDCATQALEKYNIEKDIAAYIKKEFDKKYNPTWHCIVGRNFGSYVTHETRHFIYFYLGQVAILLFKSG

B1: Spindle-F (Spn-F), full-length, myc-tagged (protein, UniProt Q9V9Y9 1-364)
chain: MEASAAKITPMASSMSASGSTNSPSSEKMNYALQVALQTIKERCIQLQRRVASMEEENQQLREASSRSEGAPRANEIGVTGDVLSLKAQVSELQRQKEQLEEHIGMVSNENRRLWSRLSQISKDQQLNALPSSTDSRAQQNQNLVRSKTFTQHSPNPHLRQKMLSDGIKDLSLEEIALDDFGASSEELGYPYNLQKVEETTSEPDANVDAKRCLDGLQELRREAMKQQQELRSVMTLLENRIALKPCPECAQKTIKKPEMADKSLETDDSLTSELKNYESQHNGHNGTPPSQRINIIQEKIKADAADAMEKTCPMCGKQYSSQVSFNAFREHVEMHFIDDALELESENSIERQFEFVSHAVGDF
B2: Spn-F-8A, phospho-deficient mutant, myc-tagged (protein, UniProt Q9V9Y9 1-364)
chain: MEASAAKITPMASSMSASGSTNSPSSEKMNYALQVALQTIKERCIQLQRRVAAMEEENQQLREASSRSEGAPRANEIGVTGDVLALKAQVSELQRQKEQLEEHIGMVSNENRRLWSRLSQISKDQQLNALPSSTDSRAQQNQNLVRSKTFTQHSPNPHLRQKMLSDGIKDLALEEIALDDFGASSEELGYPYNLQKVEETTAEPDANVDAKRCLDGLQELRREAMKQQQELRSVMTLLENRIALKPCPECAQKTIKKPEMADKALETDDALTSELKNYESQHNGHNGTPPSQRINIIQEKIKADAADAMEKTCPMCGKQYSSQVAFNAFREHVEMHFIDDALELESENAIERQFEFVSHAVGDF
B3: Spn-F-8D, phospho-mimetic mutant, myc-tagged (protein, UniProt Q9V9Y9 1-364)
chain: MEASAAKITPMASSMSASGSTNSPSSEKMNYALQVALQTIKERCIQLQRRVADMEEENQQLREASSRSEGAPRANEIGVTGDVLDLKAQVSELQRQKEQLEEHIGMVSNENRRLWSRLSQISKDQQLNALPSSTDSRAQQNQNLVRSKTFTQHSPNPHLRQKMLSDGIKDLDLEEIALDDFGASSEELGYPYNLQKVEETTDEPDANVDAKRCLDGLQELRREAMKQQQELRSVMTLLENRIALKPCPECAQKTIKKPEMADKDLETDDDLTSELKNYESQHNGHNGTPPSQRINIIQEKIKADAADAMEKTCPMCGKQYSSQVDFNAFREHVEMHFIDDALELESENDIERQFEFVSHAVGDF

Key:
[1] = target: Cut up (Ctp), Drosophila homologue of dynein light chain 1, FLAG-tagged (Drosophila) (UniProt Q24117); experiment: co-IP; lysates of S2 cells transfected with Ctp-FLAG and Ik2-HA or Ik2-G250D-HA, with or without Spn-F-myc (or SpnF-8A-myc, SpnF-8D-myc); anti-FLAG M2 agarose beads; immunoblot
[2] = target: Spindle-F (Spn-F), full-length, myc-tagged (D. melanogaster) (UniProt Q9V9Y9); experiment: co-IP; self-association: lysates of S2 cells co-transfected with two differently tagged copies of a Spn-F form (myc and FLAG in Fig 4J), alone or together with wild-type ik2 or ik2-G250D; co-IP with anti-FLAG antibody; immunoblot
[3] = target: Cut up (Ctp), Drosophila homologue of dynein light chain 1, FLAG-tagged (Drosophila) (UniProt Q24117); experiment: co-IP; lysates of S2 cells co-transfected with a FLAG-tagged bait (Ik2-FLAG or Ctp-FLAG) and a myc-tagged Spn-F form; anti-FLAG M2 agarose beads on ice; lysis buffer 20 mM Tris pH 7.0, 150 mM NaCl, 2 mM EDTA, 1% TritonX-100, 1 mM DTT; immunoblot
[4] = target: Spn-F-8A, phospho-deficient mutant, myc-tagged (D. melanogaster) (UniProt Q9V9Y9); experiment: co-IP; self-association: lysates of S2 cells co-transfected with two differently tagged copies of a Spn-F form (myc and FLAG in Fig 4J), alone or together with wild-type ik2 or ik2-G250D; co-IP with anti-FLAG antibody; immunoblot

| Binder | binding [1] | binding [2] | binding [3] | binding [4] |
| --- | --- | --- | --- | --- |
| B1 | binds | binds | binds |  |
| B2 | binds |  |  | binds |
| B3 | binds |  |  |  |
